Source: PubChem BioAssay AID2685 (National Center for Advancing Translational Sciences (NCATS), 2010)
The other results are listed elsewhere or left out. The main result of the screen is listed elsewhere. These columns were measured beside it and carry no call. The list favours compounds with an active or inconclusive main result. The note in brackets gives the kind of curve behind each potency; many fits are weak.

Experiment: qHTS Assay for Lipid Storage Modulators in Drosophila S3 Cells;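 for cell number change: cells counted by Cell Tracker Red CMTPX staining in the red channel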
Conditions: BODIPY lipid droplet fluorescence, 18-24 h; for cell number change: measured here: cell count max response, cells fed with added oleic acid
Procedure, shortened: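 Laser-scanning cytometry quantifies lipid droplet accumulation (500–530 nm total intensity; droplet/cell object ratio) in oleic acid-fed (400 uM added) Drosophila S3 cells treated with a concentration series. 20 uM Triacsin C defined 100% inhibition.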

[1] = measured here: cell number channel AC50, cells fed with added oleic acid
[2] = measured here: lipid fluorescence (Fed channel) AC50, cells fed with added oleic acid

| SMILES | AC50 [1] | AC50 [2] | cell number change |
| --- | --- | --- | --- |
| Cc1cccc(/C(N)=N/OC(=O)c2ccccc2Cl)c1 | 0.82 µM [rising, partial curve] | 2.91 µM [rising, partial curve] |  |
| NC(=O)CC(NC(=O)c1cccc(Br)c1)c1ccc(N2CCN(c3ccccn3)CC2)c([N+](=O)[O-])c1 (centres undefined) |  |  | -1.2% |
| Cc1ccc(S(=O)(=O)N2[C@@H](c3ccc(Cl)cc3)C(C(=O)O)=CC[C@H]2c2ccc(C(C)C)cc2)cc1 | 32.6 µM [falling, single point] | 29.1 µM [falling, single point] | -38% |
| COc1ccc(-n2nc3c(N4CCC(C(=O)NCc5ccco5)CC4)nnc(C)c3c2C)cc1 |  | 23.1 µM [rising, single point] | 6.49% |
| COc1ccc(CNC(=O)Cn2c(=O)n(CC(=O)N3CCCCC3)c(=O)c3sccc32)cc1 |  |  | -13% |
| COCc1cc(C)nc(N)c1C#N |  |  | 4.78% |
| Cc1ccccc1OCCn1cc(C(=O)O)c2ccccc21 |  |  | -18.8% |
| CC1=C(C(=O)OCc2ccc3c(c2)OCO3)C(c2ccc(Cl)cc2)NC(=O)N1 (centres undefined) | 16.4 µM [rising, single point] | 4.61 µM [rising, single point] | 33.8% |
| Cc1ccc(C)c(NC(=O)CSc2nnc(-c3n[nH]c4ccccc34)o2)c1 |  |  | -2.82% |
| CC(C(=O)c1ccccc1)n1c(N2CCOCC2)nc2c1c(=O)n(C)c(=O)n2C (centres undefined) |  | 6.51 µM [rising, single point] | 17.6% |
| Cc1cc(Nc2cccc(C(F)(F)F)c2)n2nc(C)nc2n1 |  | 2.91 µM [rising, single point] | 2.7% |
| CCCN1/C(=C2/SC(=S)N(CC)C2=O)C=Cc2ccccc21 | 25.9 µM [falling, single point] | 7.31 µM [falling, partial curve] | -88.4% |
| O=C(CSc1nnc(NC(=O)C2CC2)s1)NCc1ccco1 | 0.651 µM [falling, single point] | 0.13 µM [falling, full curve, poor fit] |  |
| COc1cccc(C(=O)Nc2nnc(S(=O)(=O)N(C)Cc3ccc(F)cc3)s2)c1 |  | 18.4 µM [falling, single point] |  |
| COC(=O)c1ccc(COC(=O)c2ccc(S(=O)(=O)N3CCC(C)CC3)cc2)o1 | 0.00651 µM [falling, full curve, poor fit] |  | -24.2% |
| O=C(NCCc1ccccc1)C1(S(=O)(=O)c2ccc(Cl)cc2)CC1 |  | 25.9 µM [rising, single point] | 20.7% |
| COc1ccc(C)cc1Nc1n[n+](-c2ccccc2)c(-c2c(OC)ccc3ccccc23)s1 | 20.6 µM [falling, single point] | 29.1 µM [falling, single point] | -69% |
| COc1ccc(C(=O)N2CC3(CC(c4ccc(Cl)cc4)=NO3)C[C@H]2C(=O)NCC(N)=O)cc1 (some centres undefined) |  |  | 69.4% |
| CCOc1cccc(CNCCCSc2ncccn2)c1 |  | 2.59 µM [rising, single point] | -13.3% |
| O=C(/C=C/c1ccc([N+](=O)[O-])cc1)NCCSCc1ccco1 | 0.731 µM [rising, single point] |  | -16.7% |
| COc1ccc(CCN(C)CCN2C(=O)c3ccccc3C2=O)cc1OC |  | 0.291 µM [falling, partial curve, poor fit] | 2.8% |

| SMILES | AC50 [1] | AC50 [2] | cell number change |
| --- | --- | --- | --- |
| O=C(COC(=O)c1n[nH]c(=O)c2ccccc12)c1ccccc1 | 3.66 µM [falling, full curve, poor fit] | 3.66 µM [falling, full curve] | -43.1% |
| CCc1cc(C(=O)NC2CCCc3c2cnn3-c2cccc(C)c2C)n(C)n1 (centres undefined) | 0.0259 µM [falling, full curve] | 0.0731 µM [falling, full curve, poor fit] | -34.2% |
| O=C(N/N=C/c1c[nH]c2ccccc12)c1ccc(Cl)cc1 |  | 13 µM [falling, partial curve, poor fit] | 0.354% |
| O=C(CN1C(=O)C2C3C=CC(C3)C2C1=O)Nc1ccc2c(c1)OCCO2 (centres undefined) |  |  | -3.75% |
| COc1cccc(-c2ncc3ccccc3c2COC(=O)c2ccccc2C(=O)O)c1 |  |  | -3.84% |
| CC1CCN(C(=O)COC(=O)c2ccc(F)c(S(=O)(=O)N3CCOCC3)c2)CC1 |  |  | 18.9% |
| COCCN(C(=O)c1ccc(NC2CC2)c([N+](=O)[O-])c1)c1c(N)n(CC(C)C)c(=O)[nH]c1=O |  |  | 12.1% |
| COc1ccccc1NC(=S)N1CCC(NC(=O)c2ccco2)CC1 |  | 3.66 µM [falling, single point] | -8.03% |
| Cc1[nH]c2ccccc2c1CCNS(=O)(=O)c1ccc(S(N)(=O)=O)cc1 |  |  | 16.7% |
| CCN1C(=O)c2cccc3c(S(=O)(=O)NC(Cc4ccccc4)C(=O)O)ccc1c23 (centres undefined) |  |  | 2.52% |
| O=C(Cc1ccccc1F)Nc1ccccc1-c1ccccc1 | 0.13 µM [falling, full curve, poor fit] |  | -13.8% |
| CCCC(=O)Nc1nc(-c2ccc(OC)cc2)cs1 | 0.0731 µM [rising, full curve] | 2.31 µM [rising, partial curve] | 48.1% |
| O=C1/C(=C\c2ccco2)SC(=S)N1c1ccc(O)cc1 | 29.1 µM [falling, single point] | 20.6 µM [falling, single point] | -43.3% |
| COC(=O)c1ccc(C)c(NS(=O)(=O)c2ccc(OC)cc2)c1 | 16.4 µM [rising, partial curve] |  | 46.6% |
| CCOC(=O)CCc1n[nH]c(=O)[nH]c1=O |  | 0.58 µM [falling, single point] | 5% |
| O=C(NCc1ccccc1F)C(=O)NCC1CCCN1S(=O)(=O)c1cccs1 (centres undefined) | 29.1 µM [rising, single point] |  | 47.8% |
| NS(=O)(=O)c1ccc(CNC(=O)c2ccc(NS(=O)(=O)c3ccc4[nH]c(=O)[nH]c4c3)cc2)cc1 |  | 29.1 µM [falling, single point] | -0.468% |
| Cc1ccc(S(=O)(=O)C(C#N)c2nc3ccccc3nc2N2CCCCC2)cc1 (centres undefined) |  | 0.00651 µM [falling, full curve, poor fit] | 11.3% |
| O=C1C=C(c2ccc3ccccc3c2)C[C@@H](c2ccc(F)cc2)C1 |  | 0.058 µM [falling, full curve] | 3.82% |
| CN(C)c1ccc(Nc2cc(Cl)ncn2)cc1 |  | 20.6 µM [falling, single point] | -24.8% |
| Oc1cc(O)c2c(c1)O[C@H](c1ccc(O)c(O)c1)[C@@H](O)C2 |  | 6.51 µM [falling, single point] | -16.7% |

In another format: results already given.
SMILES	AC50 [1]	AC50 [2]	cell number change
COc1ccc(C(=O)N2CC3(CC(c4ccc(Cl)cc4)=NO3)C[C@H]2C(=O)NCC(N)=O)cc1 (some centres undefined)			69.4%
CCOc1cccc(CNCCCSc2ncccn2)c1		2.59 µM [rising, single point]	-13.3%
O=C(/C=C/c1ccc([N+](=O)[O-])cc1)NCCSCc1ccco1	0.731 µM [rising, single point]		-16.7%
COc1ccc(CCN(C)CCN2C(=O)c3ccccc3C2=O)cc1OC		0.291 µM [falling, partial curve, poor fit]	2.8%
O=C(COC(=O)c1n[nH]c(=O)c2ccccc12)c1ccccc1	3.66 µM [falling, full curve, poor fit]	3.66 µM [falling, full curve]	-43.1%
CCc1cc(C(=O)NC2CCCc3c2cnn3-c2cccc(C)c2C)n(C)n1 (centres undefined)	0.0259 µM [falling, full curve]	0.0731 µM [falling, full curve, poor fit]	-34.2%
O=C(N/N=C/c1c[nH]c2ccccc12)c1ccc(Cl)cc1		13 µM [falling, partial curve, poor fit]	0.354%
O=C(CN1C(=O)C2C3C=CC(C3)C2C1=O)Nc1ccc2c(c1)OCCO2 (centres undefined)			-3.75%
COc1cccc(-c2ncc3ccccc3c2COC(=O)c2ccccc2C(=O)O)c1			-3.84%
CC1CCN(C(=O)COC(=O)c2ccc(F)c(S(=O)(=O)N3CCOCC3)c2)CC1			18.9%
COCCN(C(=O)c1ccc(NC2CC2)c([N+](=O)[O-])c1)c1c(N)n(CC(C)C)c(=O)[nH]c1=O			12.1%
COc1ccccc1NC(=S)N1CCC(NC(=O)c2ccco2)CC1		3.66 µM [falling, single point]	-8.03%
Cc1[nH]c2ccccc2c1CCNS(=O)(=O)c1ccc(S(N)(=O)=O)cc1			16.7%
CCN1C(=O)c2cccc3c(S(=O)(=O)NC(Cc4ccccc4)C(=O)O)ccc1c23 (centres undefined)			2.52%
O=C(Cc1ccccc1F)Nc1ccccc1-c1ccccc1	0.13 µM [falling, full curve, poor fit]		-13.8%
CCCC(=O)Nc1nc(-c2ccc(OC)cc2)cs1	0.0731 µM [rising, full curve]	2.31 µM [rising, partial curve]	48.1%
O=C1/C(=C\c2ccco2)SC(=S)N1c1ccc(O)cc1	29.1 µM [falling, single point]	20.6 µM [falling, single point]	-43.3%
COC(=O)c1ccc(C)c(NS(=O)(=O)c2ccc(OC)cc2)c1	16.4 µM [rising, partial curve]		46.6%

Two neighbouring records from above, quoted:

| SMILES | AC50 [1] | AC50 [2] | cell number change |
| --- | --- | --- | --- |
| Cc1ccc(S(=O)(=O)C(C#N)c2nc3ccccc3nc2N2CCCCC2)cc1 (centres undefined) |  | 0.00651 µM [falling, full curve, poor fit] | 11.3% |
| O=C1C=C(c2ccc3ccccc3c2)C[C@@H](c2ccc(F)cc2)C1 |  | 0.058 µM [falling, full curve] | 3.82% |

(more compounds)

| SMILES | AC50 [1] | AC50 [2] | cell number change |
| --- | --- | --- | --- |
| N#Cc1ccccc1NC(=O)COC(=O)CCc1ccccc1 |  |  | 3.85% |
| O=C(CN1CCC(C(=O)c2ccc3c(c2)OCCO3)CC1)NCc1ccccc1 |  | 0.00517 µM [rising, full curve, poor fit] | 16.7% |
| CCCOc1ccc(NC(=O)CCC(=O)NC(C)c2ccccc2)cc1 (centres undefined) |  |  | -11% |
| Cc1ccccc1OCC(O)Cn1c(SC(C)C)nc2c1c(=O)[nH]c(=O)n2C (centres undefined) | 2.59 µM [rising, partial curve] |  | 3.99% |
| c1ccc(-c2nc3ccccn3c2NCc2ccc3c(c2)OCO3)cc1 |  | 0.13 µM [rising, full curve, poor fit] | 9.67% |
| CCOc1ccccc1C1NC(=O)CCC1[N+](=O)[O-] (centres undefined) |  |  | -0.265% |
| CCCNC(=O)c1cccc(Cn2cc(Br)c([N+](=O)[O-])n2)c1 | 5.17 µM [falling, single point] | 10.3 µM [rising, partial curve] | 10.1% |
| Cc1c(C(=O)NCCc2ccc(S(N)(=O)=O)cc2)cccc1[N+](=O)[O-] |  |  | 0.637% |
| C/C(N)=C(/C#N)C(=O)COC(=O)C(c1ccccc1)c1ccccc1 |  | 32.6 µM [falling, single point] | -21.1% |
| COc1ccccc1C(=O)Nc1cccc(SC)c1 | 2.06 µM [rising, partial curve] | 3.26 µM [rising, partial curve] | 11.9% |
| OCCC1CN(Cc2cc3c(cc2Cl)OCO3)CCN1C1CCCC1 (centres undefined) |  | 0.164 µM [falling, full curve, poor fit] | -6.21% |
| CC(=O)Nc1sc(C)c(C)c1C(=O)OCC(=O)N(C)c1c(N)n(Cc2ccccc2)c(=O)[nH]c1=O |  | 18.4 µM [rising, single point] | 14.2% |
| O=C(N1CCOCC1)N1CCC(c2nc(-c3ccc(S(=O)(=O)N4CCOCC4)cc3)no2)CC1 |  | 3.26 µM [falling, full curve] | -21.6% |
| CC(C(=O)N1CCCCCC1)N(c1ccc(Cl)cc1)S(C)(=O)=O (centres undefined) |  |  | -1.72% |
| CC1CCN(C(=O)C(=O)c2cn(CC(=O)N3CCCC3)c3ccccc23)CC1 |  |  | -5.78% |
| COc1ccc(-n2cc(-c3ccccc3)c3c(NCCOCCO)ncnc32)cc1 |  | 0.651 µM [falling, full curve, poor fit] | -86.6% |
| CCCCN1C(=O)/C(=C2\SC(N3CCOCC3)=NC2=O)c2ccccc21 |  | 20.6 µM [falling, single point] |  |
| CCN(C(=O)COC(=O)c1cc(S(=O)(=O)N2CCOCC2)ccc1F)C1CCS(=O)(=O)C1 (centres undefined) |  | 16.4 µM [falling, single point] | 9.59% |
| Cn1nc(-c2ccccc2)c(C(=O)NCC(=O)O)c1Cl | 0.206 µM [falling, full curve] | 0.231 µM [falling, full curve] | -68.2% |
| COc1ccc(S(=O)(=O)NCCc2c[nH]c3ccccc23)cc1OC |  |  | 12.5% |
